# Results from one PubChem assay

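A cell-based FRET test of anthrax lethal toxin entry, tracked through the 460 nm emission signal; the cell line is not named here. Each compound was tested as a concentration series from about 0.0005 to 40 µM. The number is the fitted AC50 of the 460 nm signal alone; lower values mean a more potent effect. A falling signal goes with compounds filed as inhibitors or cytotoxic, a rising one with activators or fluorescent compounds (inferred from the filed classes).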

Values are in nM. Common to all entries: measured here: 460 nm channel. Part of the compounds only, not a random draw; the main read-out is not listed here. Potencies fitted to partial, single-point or poorly fitting curves are rough. The first word of each remark tells which way the curve ran; it can be opposite to the aim of the assay.

Compound | AC50 (nM) | curve as filed
CCn1ccc(C(=O)Oc2ccc(C(C)C)cc2)n1 | 12589 | falling, partial curve
Clc1cccc(CN2CCCCC2c2cccnc2)c1 (centres unmarked) | 31622 | falling, single point
Cc1ccccc1Cn1nc(C)c(NC(=O)c2cc(-c3cccs3)on2)c1C | 100 | rising, partial curve, poor fit
COCCn1c(SCc2csc(-c3ccccc3)n2)nc2ccccc21 | 12589 | falling, partial curve, poor fit
O=C(CSc1nnc(CNc2ccc(F)cc2)o1)N1CCCc2ccccc21 | 10000 | falling, partial curve, poor fit
O=c1cnc2cnc(N3CCOCC3)nc2n1CCc1ccccc1 | 10000 | rising, single point
O=C(Nc1ccccc1)N1CCC2(CC1)CCN(C(=O)c1csnn1)CC2 | 5012 | rising, single point
CN1CCC(=C2c3ccccc3CCc3sccc32)CC1 | 12589 | falling, single point
Cc1cc(Nc2ccc(O)cc2)ccc1N | 25118 | falling, partial curve, poor fit
COc1cccc(C2=NOC(C(=O)N3CCc4ccccc4C3)C2)c1 (centres unmarked) | 12589 | falling, single point
CCOC(=O)Cn1c(=O)oc2cc(S(=O)(=O)NC3CCCc4ccccc43)ccc21 (centres unmarked) | 31622 | falling, single point
CNc1ncnc2ccc(-c3ccccc3C#N)cc12 | 3162 | falling, single point
CCc1nc(SCc2cc(Cl)ccc2OC)n[nH]1 | 7943 | rising, partial curve
NS(=O)(=O)c1ccc(CCNc2nc(CN3CCOCC3)nc3sc4c(c23)CCC4)cc1 | 12589 | rising, single point
CCOC(=O)C1CCN(S(=O)(=O)c2ccc3c4c(cccc24)C(=O)N3)CC1 | 12589 | rising, partial curve
COc1ccc(CN(Cc2ccccn2)C(=O)CN2C(=O)C(C)Oc3ccccc32)cc1 (centres unmarked) | 5012 | rising, single point
Cc1ccc(C2NC(=O)c3ccccc3N2)s1 (centres unmarked) | 31.62 | falling, full curve
CNC(=O)c1cc2c(=O)n3cc(C)ccc3nc2n(C(C)C)c1=N | 3162 | rising, full curve
O=C(COc1ccccc1)Nc1ccccc1N1CCCCC1 | 5012 | falling, partial curve
N#CCSc1nc2c(sc(=S)n2Cc2ccco2)c(=O)n1-c1ccc(F)cc1 | 5012 | rising, partial curve
Cc1sc(N)c(C(=O)c2cccc(C(F)(F)F)c2)c1C | 15848 | falling, partial curve
Cn1nc(-c2ccc(N3CCOCC3)c(NC(=O)c3ccccc3)c2)c2ccccc2c1=O | 398.1 | falling, single point
O=C1C[C@@H](c2ccc(O)cc2)Oc2cc(O)cc(O)c21 | 12589 | falling, full curve
CN[C@H]1CC[C@@H](c2ccc(Cl)c(Cl)c2)c2ccccc21 | 12589 | falling, partial curve
Cc1ccc(S(=O)(=O)c2cccc(S(=O)(=O)N3CCCC3)c2)cc1S(=O)(=O)N1CCCC1 | 31622 | falling, single point
CCCCNc1nc(N(C)c2ccccc2)nc(-n2ccnc2)n1 | 25118 | falling, partial curve
FC(F)(F)c1ccccc1-c1ccc2ncnc(NC3CCNCC3)c2c1 | 25118 | falling, single point
O=C(CCCN1CCC(O)(c2ccc(Cl)cc2)CC1)c1ccc(F)cc1 | 31622 | falling, single point
CCn1c(SC/C=C/c2ccccc2)nnc1-c1cccs1 | 5012 | falling, partial curve
c1ccc(CNc2ccnc(-c3cccnc3)n2)cc1 | 3162 | rising, partial curve
C=CCOC(=O)c1ccccc1N | 31622 | falling, single point
CC(C)CC(/C(O)=C(\C#N)c1nc2ccccc2[nH]1)N1C(=O)c2ccccc2C1=O (centres unmarked) | 12589 | falling, single point
Cc1c(C(=O)NCCC2=CCCCC2)oc2ccc(S(=O)(=O)N3CCC4(CC3)OCCO4)cc12 | 5012 | falling, full curve
COC(=O)[C@H](CCSC)NC(=O)NCCC1=CCCCC1 | 10000 | rising, single point
CCOC(=O)C1=C(C)NC(SCC(=O)O)=NC1c1ccccc1 (centres unmarked) | 12589 | rising, single point
COc1ccccc1-n1cnnc1SCC(=O)Nc1cc(C(C)(C)C)nn1-c1ccccc1 | 125.9 | rising, full curve, poor fit
COc1cccc(OC)c1C(=O)Nc1nnc(C(C)C)s1 | 1995 | rising, single point

Repeated from the top, 5 entries:

| Compound | AC50 (nM) | curve as filed |
|---|---|---|
| `CCn1ccc(C(=O)Oc2ccc(C(C)C)cc2)n1` | 12589 | falling, partial curve |
| `Clc1cccc(CN2CCCCC2c2cccnc2)c1` (centres unmarked) | 31622 | falling, single point |
| `Cc1ccccc1Cn1nc(C)c(NC(=O)c2cc(-c3cccs3)on2)c1C` | 100 | rising, partial curve, poor fit |
| `COCCn1c(SCc2csc(-c3ccccc3)n2)nc2ccccc21` | 12589 | falling, partial curve, poor fit |
| `O=C(CSc1nnc(CNc2ccc(F)cc2)o1)N1CCCc2ccccc21` | 10000 | falling, partial curve, poor fit |

Source: PubChem BioAssay AID912 (NCATS, 2007).